From article PMC10421740 come the findings set out here.

The direction of at least one scale is not stated here. Where a protein sequence is shown, tags need not be part of it.

Series [1] deals with T1, KLF6 reprogrammed with array CDKN1C_125 F3-8 (synthetic construct) (UniProt Q99612).
T1 sequence: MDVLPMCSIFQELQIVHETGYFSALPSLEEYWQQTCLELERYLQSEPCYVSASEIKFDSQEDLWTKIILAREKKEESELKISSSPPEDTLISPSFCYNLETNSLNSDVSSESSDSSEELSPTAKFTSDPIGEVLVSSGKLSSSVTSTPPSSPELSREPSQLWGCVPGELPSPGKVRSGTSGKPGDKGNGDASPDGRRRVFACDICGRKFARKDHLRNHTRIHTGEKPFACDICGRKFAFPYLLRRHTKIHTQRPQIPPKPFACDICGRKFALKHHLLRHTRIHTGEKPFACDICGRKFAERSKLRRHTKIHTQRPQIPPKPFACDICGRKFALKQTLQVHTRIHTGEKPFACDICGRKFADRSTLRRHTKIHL
As to the kind of experiment: binding assay. The following applies: Zn; HEK293T, RT-qPCR 3 days after transfection; residues 1-199; scale: relative expression.

Series [2] addresses T2, KLF6 reprogrammed with array CDKN1C_200 F1-6 (synthetic construct) (UniProt Q99612).
T2 sequence: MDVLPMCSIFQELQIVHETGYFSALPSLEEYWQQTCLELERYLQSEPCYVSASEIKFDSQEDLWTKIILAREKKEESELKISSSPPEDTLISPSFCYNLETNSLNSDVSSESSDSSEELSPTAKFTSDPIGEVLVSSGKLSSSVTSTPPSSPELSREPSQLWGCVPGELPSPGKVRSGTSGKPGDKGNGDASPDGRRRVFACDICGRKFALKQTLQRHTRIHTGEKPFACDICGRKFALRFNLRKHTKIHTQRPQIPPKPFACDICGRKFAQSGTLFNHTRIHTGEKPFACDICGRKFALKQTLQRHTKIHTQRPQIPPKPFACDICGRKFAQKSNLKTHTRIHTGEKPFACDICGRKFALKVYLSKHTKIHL
Kind of series: binding assay. The conditions noted are these: Zn; HEK293T, RT-qPCR 3 days after transfection; residues 1-199; scale: relative expression.

Turning to “GCCAATGGGCGGTGCGCGGGGGCCGGGC (double strand) [CDKN1C_125]”, the binding signal in series [1] was found to be 0.4.

Sequence “TTGAAACTGAAAATACTACATTATGCTA (double strand) [CDKN1C_200]” returned a binding signal in series [2] of 1.3.
